The text below walks through data of paper PMC13631264.

Amino acid sequences for entries named in this document (tags omitted). Residues count along the entry.
UniProt P15208, residues 28-1372: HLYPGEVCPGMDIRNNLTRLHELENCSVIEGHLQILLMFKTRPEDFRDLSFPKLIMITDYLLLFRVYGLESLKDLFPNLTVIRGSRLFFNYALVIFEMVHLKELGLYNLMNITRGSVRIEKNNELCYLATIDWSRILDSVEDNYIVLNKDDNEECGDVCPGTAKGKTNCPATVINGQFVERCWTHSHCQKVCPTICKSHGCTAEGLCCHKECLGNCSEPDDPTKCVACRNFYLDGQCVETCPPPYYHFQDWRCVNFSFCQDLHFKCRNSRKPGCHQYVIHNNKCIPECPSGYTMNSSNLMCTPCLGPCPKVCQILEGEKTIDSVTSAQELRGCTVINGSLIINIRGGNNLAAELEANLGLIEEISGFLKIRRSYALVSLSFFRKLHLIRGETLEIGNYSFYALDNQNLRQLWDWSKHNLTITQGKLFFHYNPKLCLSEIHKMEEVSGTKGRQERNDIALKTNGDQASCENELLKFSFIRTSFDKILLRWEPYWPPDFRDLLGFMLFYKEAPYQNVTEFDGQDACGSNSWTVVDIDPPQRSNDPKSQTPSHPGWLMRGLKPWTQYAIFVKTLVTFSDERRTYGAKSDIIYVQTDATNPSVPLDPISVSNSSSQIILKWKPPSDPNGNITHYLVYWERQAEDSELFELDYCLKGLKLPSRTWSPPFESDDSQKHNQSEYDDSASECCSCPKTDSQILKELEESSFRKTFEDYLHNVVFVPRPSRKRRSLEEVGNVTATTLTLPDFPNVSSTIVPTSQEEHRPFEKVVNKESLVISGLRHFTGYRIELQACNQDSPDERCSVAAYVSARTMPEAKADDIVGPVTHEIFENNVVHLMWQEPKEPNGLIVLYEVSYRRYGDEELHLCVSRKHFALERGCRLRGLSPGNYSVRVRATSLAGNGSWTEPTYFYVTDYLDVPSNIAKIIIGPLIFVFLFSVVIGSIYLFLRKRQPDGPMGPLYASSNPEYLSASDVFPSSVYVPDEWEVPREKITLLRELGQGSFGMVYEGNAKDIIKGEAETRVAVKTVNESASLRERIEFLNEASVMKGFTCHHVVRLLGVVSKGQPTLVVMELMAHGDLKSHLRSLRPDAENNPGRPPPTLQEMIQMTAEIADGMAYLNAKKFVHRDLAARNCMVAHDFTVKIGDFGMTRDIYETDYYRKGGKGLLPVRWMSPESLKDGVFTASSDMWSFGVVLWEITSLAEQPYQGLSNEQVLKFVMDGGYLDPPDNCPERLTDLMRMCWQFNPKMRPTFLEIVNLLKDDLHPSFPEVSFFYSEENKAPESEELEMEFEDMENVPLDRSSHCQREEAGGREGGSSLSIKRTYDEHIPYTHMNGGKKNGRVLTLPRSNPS
UniProt P63208: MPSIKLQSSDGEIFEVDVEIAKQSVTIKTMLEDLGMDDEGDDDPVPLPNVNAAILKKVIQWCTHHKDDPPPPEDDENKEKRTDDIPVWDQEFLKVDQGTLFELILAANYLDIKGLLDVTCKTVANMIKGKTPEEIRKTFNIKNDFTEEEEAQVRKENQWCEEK

For the assay, the target named is IR-Flag (insulin receptor with Flag tag) (UniProt P15208). In words: affinity purification with mass spectrometry; HEK293T cells transfected with IR-Flag, treated with MG132; NP-40 lysis buffer; anti-FLAG M2 affinity gel overnight, elution with Flag peptides, SDS-PAGE, silver stain, LC-MS/MS of excised bands.

These are yes or no findings as the source states them, for the method shown. Binding seen in cells or lysates may run through a third protein. Here binding means that the protein was enriched with, or labelled near, the bait; the list need not be complete.

In the case of “SKP1 (endogenous in HEK293T cells) (from UniProt P63208 1-163)”, the binding entry was “binds”.

B1: FBXO2 (endogenous in HEK293T cells) (protein, UniProt Q9UK22 1-296)
chain: MDGDGDPESVGQPEEASPEEQPEEASAEEERPEDQQEEEAAAAAAYLDELPEPLLLRVLAALPAAELVQACRLVCLRWKELVDGAPLWLLKCQQEGLVPEGGVEEERDHWQQFYFLSKRRRNLLRNPCGEEDLEGWCDVEHGGDGWRVEELPGDSGVEFTHDESVKKYFASSFEWCRKAQVIDLQAEGYWEELLDTTQPAIVVKDWYSGRSDAGCLYELTVKLLSEHENVLAEFSSGQVAVPQDSDGGGWMEISHTFTDYGPGVRFVRFEHGGQDSVYWKGWFGARVTNSSVWVEP
As to B1, the binding result is given as “binds”.
